The other results are listed elsewhere or left out.
The sequences below were run against OsWRKY34 (Oryza sativa, UniProt Q0JBA9 1-250) (assay: protein-binding microarray (RPBM); PBS, 2% BSA, 51.3 ng/ul salmon testes DNA, 50 uM zinc acetate, 200 nM TF, 25 C, 1 h; high values mean tight binding). Conditions: protein: recombinant; tags: N-terminal polyhistidine and DsRed monomer fusion (pET32a); label: CyDye5-dUTP incorporated in the synthesized complementary strand; 3' TTTTT single-stranded linker to array surface; dsDNA, one strand shown.
In short: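 Polyhistidine-tagged DsRed fusions of transcription factors, joined at the N-terminus, were expressed in E. coli BL21-CodonPlus and isolated on Ni–NTA. They were incubated at 200 nM for 1 h at 25 °C on a custom Agilent array, double-stranded and BSA-blocked, in PBS with 2% BSA, salmon testes DNA and 50 µM zinc acetate. The binding signal is per-feature fluorescence intensity (arbitrary units) read on an Axon 4000B scanner after washing.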

By UniProt entry, the sequences of proteins in these tests, tags left out.
UniProt Q0JBA9, entry or part of it: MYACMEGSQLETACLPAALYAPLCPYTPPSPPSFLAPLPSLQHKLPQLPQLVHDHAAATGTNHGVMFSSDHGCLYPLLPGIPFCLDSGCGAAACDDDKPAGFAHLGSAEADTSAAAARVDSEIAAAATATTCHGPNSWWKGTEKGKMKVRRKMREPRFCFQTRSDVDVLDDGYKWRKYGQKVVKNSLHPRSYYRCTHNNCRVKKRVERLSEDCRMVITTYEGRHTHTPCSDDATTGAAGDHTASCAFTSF

Sequence | binding signal
TGACTTTTTAGCACATGTTTGACTGTTCGTCTTATTCAAACGGAGTCACCTAGTGCAG | 10200 fluorescence intensity (a.u.)
CAGGGGTGGGCCCAGTAGTAATTCAAGGGTATTCCCAAGACGGAGTCACCTAGTGCAG | 8560 fluorescence intensity (a.u.)
TCGCTGTTGAACTCTCTCTTCCCTCTCTCTCTTTCTCTCTCGGAGTCACCTAGTGCAG | 8400 fluorescence intensity (a.u.)
GTCGAAACCCTAGCCGCGCGCGCCGCCGCCTCCTCTCCCGCGGAGTCACCTAGTGCAG | 8290 fluorescence intensity (a.u.)
TACGACGGCCGAAGGTGGGGAAGAAGGAGAGGGGAGGGGCCGGAGTCACCTAGTGCAG | 9290 fluorescence intensity (a.u.)
GACCTCCTCATTTCGTCGAACACCTCGCGGGCGCCATGGACGGAGTCACCTAGTGCAG | 9030 fluorescence intensity (a.u.)
ATCGCTTCTCGCTGCTCATCTAGTCTATTGTGCTGCTGCTCGGAGTCACCTAGTGCAG | 8680 fluorescence intensity (a.u.)
ATTCTACATTTTGATATCAAGCCGCACAACATCCTTCTTGCGGAGTCACCTAGTGCAG | 9850 fluorescence intensity (a.u.)
CACGCTAGCTACTTCCCGCAGTTTGTGTATGCGGTGCAACCGGAGTCACCTAGTGCAG | 8050 fluorescence intensity (a.u.)
TATGTGTGCGTCCATATGTTACAAATTAAGCGATTTTTCTCGGAGTCACCTAGTGCAG | 9340 fluorescence intensity (a.u.)
CGTGCTTTTGTAAATATTTTCGATCTGGTTTTCCTTATAACGGAGTCACCTAGTGCAG | 9390 fluorescence intensity (a.u.)
GCATATTTGCATTACTTTTTGTACCACTTGATCACTTTTTCGGAGTCACCTAGTGCAG | 10200 fluorescence intensity (a.u.)
CGTCCATCTCTCCTCTCCTCGCTCTCGCTCGCTCGCTCTCCGGAGTCACCTAGTGCAG | 8780 fluorescence intensity (a.u.)
TACCGTACCTGCCCATGCTGTCGTCATCCCACCGAGGGGACGGAGTCACCTAGTGCAG | 8470 fluorescence intensity (a.u.)
AGATTCTTATTCACCATTCCTGGAGCTCATGCTTAATTTCCGGAGTCACCTAGTGCAG | 9980 fluorescence intensity (a.u.)
GCATGTGTGGTTGACTAGCTTGCACCAGATCTGTTGGAGTCGGAGTCACCTAGTGCAG | 8790 fluorescence intensity (a.u.)
GGTGGGAATGATGACAAAAACTAATTATCCAAAGCTTACCCGGAGTCACCTAGTGCAG | 8630 fluorescence intensity (a.u.)
TCGTTTTTTTCCCCTTAGAGGCTTAGATATCGAATTTCCTCGGAGTCACCTAGTGCAG | 9190 fluorescence intensity (a.u.)
GGTTGGATAGCGCTTGTGGTGTGGGCAGGGTTTACACAAACGGAGTCACCTAGTGCAG | 14900 fluorescence intensity (a.u.)
CAAGGCCTCAACCTACTCCAGCTATCTCGCCGTACCGCCGCGGAGTCACCTAGTGCAG | 8360 fluorescence intensity (a.u.)
TACTTACGTTCTTTCATTTGATTTGGCATGTGTACTCTCTCGGAGTCACCTAGTGCAG | 9650 fluorescence intensity (a.u.)
GAACCAGGTACCTGCAATTACCACTGCTTTTTAGGCTTCCCGGAGTCACCTAGTGCAG | 10700 fluorescence intensity (a.u.)
TTTATTCTTGATTGATTTACTTTTGGTTTTTGCATAAACTCGGAGTCACCTAGTGCAG | 9010 fluorescence intensity (a.u.)
ATGTCAGCATAATCTCTTCTCATCTTCTCCTTTTCTTTTTCGGAGTCACCTAGTGCAG | 8550 fluorescence intensity (a.u.)
GTTCCCAGATGATATATTCTTGCTTTTTTTTTCTTGAAAACGGAGTCACCTAGTGCAG | 9800 fluorescence intensity (a.u.)
AGTGGTCGTCGCCTTTCTCGTGTCTCGTCGACGGCCGCGACGGAGTCACCTAGTGCAG | 9250 fluorescence intensity (a.u.)
AATTCGTTCCATATTCTACTTGTTCTCTCTGCTATTATTACGGAGTCACCTAGTGCAG | 8440 fluorescence intensity (a.u.)

Part of the list above, as tab-separated lines.
Sequence	binding signal
ATGTCAGCATAATCTCTTCTCATCTTCTCCTTTTCTTTTTCGGAGTCACCTAGTGCAG	8550 fluorescence intensity (a.u.)
GTTCCCAGATGATATATTCTTGCTTTTTTTTTCTTGAAAACGGAGTCACCTAGTGCAG	9800 fluorescence intensity (a.u.)
AGTGGTCGTCGCCTTTCTCGTGTCTCGTCGACGGCCGCGACGGAGTCACCTAGTGCAG	9250 fluorescence intensity (a.u.)

Next entries follow.

Sequence | binding signal
CCTCGCTTCTGCTCCTCGGTCCCGCACCTGCCTCCGCCTTCGGAGTCACCTAGTGCAG | 9060 fluorescence intensity (a.u.)
CTCAAGTTGACCAAGCCGCTCTTTAAATCCCTAATGGCTACGGAGTCACCTAGTGCAG | 9390 fluorescence intensity (a.u.)
TTTTTAAGTTCGTTTCTGAATTCTGCTGATTACTCTTTTTCGGAGTCACCTAGTGCAG | 8710 fluorescence intensity (a.u.)
ATAATTAAGCATTTTCTTGTTTCATATGTGCTTGTTTGACCGGAGTCACCTAGTGCAG | 10100 fluorescence intensity (a.u.)
AAATTCCGGCCGCCGCCTTCGATTCCCGCGTGCCCACGCACGGAGTCACCTAGTGCAG | 12000 fluorescence intensity (a.u.)
CCCGTCCTTGGTCGCGCTCGCACTCGCACTCGCGTCGCGTCGGAGTCACCTAGTGCAG | 8970 fluorescence intensity (a.u.)
TTGGTCCTTTTATTGCCACTAATTGGCTCGTCTAATATTACGGAGTCACCTAGTGCAG | 9310 fluorescence intensity (a.u.)
AATTCGTCTCATGGTTTACTAACGTATTTTATAATTATTTCGGAGTCACCTAGTGCAG | 8080 fluorescence intensity (a.u.)
TACTACCACACCACACCTCATCGTGGCACGTACCGGTTCACGGAGTCACCTAGTGCAG | 9410 fluorescence intensity (a.u.)
TGCTCGCCGCTACTGTGTTCCTCTCGCGTCGCCTCGTCTCCGGAGTCACCTAGTGCAG | 11900 fluorescence intensity (a.u.)
GTCCTTGTTTATGTATGGCCCTTGTCCATGGTGCAGTTCACGGAGTCACCTAGTGCAG | 10200 fluorescence intensity (a.u.)
CTTCCCCTTCTCAATCTTGTCGCGCCATCCACCTCGCCACCGGAGTCACCTAGTGCAG | 9410 fluorescence intensity (a.u.)
CATATTAATTACTTTCTTGGTTCTAACTTCGTCTTCATCTCGGAGTCACCTAGTGCAG | 9530 fluorescence intensity (a.u.)
CGTGTGTGCTATTTAAGCATGTAATCAGTGTGTGATTAATCGGAGTCACCTAGTGCAG | 9100 fluorescence intensity (a.u.)
GATGCGGCTTCACACAGCTCACACCATTTTCTTCATTATACGGAGTCACCTAGTGCAG | 8650 fluorescence intensity (a.u.)
ACTTTCTTGAATTTAATGCGTGACTCTCCATTCGTCCACACGGAGTCACCTAGTGCAG | 8360 fluorescence intensity (a.u.)
AATTTACCCCTAAGTACTTTTTGGTTCATTTTGTCTCTAACGGAGTCACCTAGTGCAG | 11700 fluorescence intensity (a.u.)
CCATCATCATCTTCCTTTCGTGCTCTAACAATGGCCATGCCGGAGTCACCTAGTGCAG | 8740 fluorescence intensity (a.u.)
ACTCGCATCGATCTTTAATTTCTGTTCTCACCTGTACATACGGAGTCACCTAGTGCAG | 13500 fluorescence intensity (a.u.)
CCAGGCCTAACAGTATACCCATTTGAAGCCCAGCTCATCTCGGAGTCACCTAGTGCAG | 8100 fluorescence intensity (a.u.)
ATGTGAACTTAGGTGGGTATATTTTTTTTTTCACGTGCCGCGGAGTCACCTAGTGCAG | 8630 fluorescence intensity (a.u.)
CTCGTGTAGAGGCTCTCTCTCTCTCTCTCTCTGGGTGGGGCGGAGTCACCTAGTGCAG | 10200 fluorescence intensity (a.u.)
TCGTTCCTCACGCGCAAAACCGAACCGCCTGCCGAACAACCGGAGTCACCTAGTGCAG | 8110 fluorescence intensity (a.u.)
GTTGTACTCCCAGTCCCCGGTTTCCCAGTCGAAAGCGTAGCGGAGTCACCTAGTGCAG | 9250 fluorescence intensity (a.u.)
CTGCGCTCTCCATTGTTTTGTGTTGTGTTTGTTTGCAGTCCGGAGTCACCTAGTGCAG | 17700 fluorescence intensity (a.u.)
GGGGAGCTATATTTCGTGATGTCAAAGGCGATGCTCGCTCCGGAGTCACCTAGTGCAG | 8220 fluorescence intensity (a.u.)
CCCACATAAGCGGCCAATCAATTTTTTCTACGTAGTTTTTCGGAGTCACCTAGTGCAG | 8380 fluorescence intensity (a.u.)

Source: paper PMC7819943, “Rice protein-binding microarrays: a tool to detect cis-acting elements near promoter regions in rice”
